Reference: patent US11591298B2, “Bisaminoquinoline compounds, pharmaceutical compositions prepared therefrom and their use” (THE TRUSTEES OF THE UNIVERSITY OF PENNSYLVANIA, priority 2011, dated 2023)
At least one compound was matched to its structure with a doubt left. Some results were stated once for a whole list of compounds, not compound by compound. Some ranges recur; such a range may be that of the whole group of compounds.

Key:
[1] = tested on: LN229 (glioma), 1205Lu (melanoma), HT-29 (colon) and c8161 (melanoma) cells; assay: MTT assay (72 hours) in 4 cell lines; type: cell-based; settings: collectively for Lys02, Lys03, HCQ
Procedure: FIGS. 4A, 4B, 4C, 4D. […] White arrows: small puncta; red arrows: dense puncta. Graphs show mean+/−SEM puncta/cell. (4B) Representative electron micrographs of LN229-GFP-LC3 cells treated (4 hours) with DMSO, HCQ 10 μM, or Lys01 10 μM Arrows: Autophagic vesicles. (4C) LC3 immunoblotting of LN229 cells treated for 24 hours an indicated; calculated ratio of LC3II/LC3I ratios for bafilomycin versus control co-treatment. […] (4D) MTT assay (72 hours) for 4 cell lines. Red: Lys01, Blue: Lys02, Purple: Lys03 Green: Lys04 Orange: HCQ. Values presented are means+/−SEM with 5 replicates per treatment.
The MTT assay was used to assess viable cells at 72 hours.

LN229 GFP-LC3 cells = assay: Bafilomycin clamp experiment (LC3 immunoblotting); type: cell-based, human; settings: 24 hours; HCQ 10 μM, Lys01 10 μM, rapamycin
Procedure: FIGS. 4A, 4B, 4C, 4D. Autophagy inhibition and cytotoxicity of Lys01 compared to HCQ (4A) Representative images of LN229 GFP-LC3 cells treated as indicated for 4 hours. White arrows: small puncta; red arrows: dense puncta. Graphs show mean+/−SEM puncta/cell. (4B) Representative electron micrographs of LN229-GFP-LC3 cells treated (4 hours) with DMSO, HCQ 10 μM, or Lys01 10 μM Arrows: Autophagic vesicles. (4C) LC3 immunoblotting of LN229 cells treated for 24 hours an indicated; calculated ratio of LC3II/LC3I ratios for bafilomycin versus control co-treatment. Above the dashed line indicates an autophagy inducer or control, below the dashed line indicated an autophagy inhibitor. (4D) MTT assay (72 hours) for 4 cell lines. Red: Lys01, Blue: Lys02, Purple: Lys03 Green: Lys04 Orange: HCQ. Values presented are means+/−SEM with 5 replicates per treatment.
To further characterize the effects of Lys01 on autophagy, LN229 GFP-LC3 cells were treated with Lys01 or HCQ (FIG. 4A). […] Electron micrographs of LN229 GFP-LC3 cells treated with DMSO, HCQ, or Lys01 further characterized the significant morphological difference in the size and number of vesicles produced by blockade of autophagy with these agents (FIG. 4B). Thus, Lys01 produces morphological changes more pronounced than HCQ, a known lysosomal inhibitor, at 10-fold lower concentrations. […]

SMILES	fold less potent than Lys01 (MTT IC50) [1]	LC3II/LC3I ratio in bafilomycin treated cells compared to control cells (LN229 GFP-LC3 cells)
CN(CCN)CCNc1ccnc2cc(Cl)ccc12 [Lys02]	9-30 fold	–
COc1ccc2c(NCCN(C)CCNc3ccnc4cc(OC)ccc34)ccnc2c1 [Lys03]	9-30 fold	–
CO[C@H]1C[C@@H]2CC[C@@H](C)[C@@](O)(O2)C(=O)C(=O)N2CCCC[C@H]2C(=O)O[C@H]([C@H](C)C[C@@H]2CC[C@@H](O)[C@H](OC)C2)CC(=O)[C@H](C)/C=C(\C)[C@@H](O)[C@@H](OC)C(=O)[C@H](C)C[C@H](C)/C=C/C=C/C=C/1C [rapamycin]	–	further increase
